Experimental findings from paper PMC3162491 are described below.

Results are given in words; binding and its absence hold for the method and conditions named. Binding can be weak; no strength is given.

For this assay, the target named is cut-vertex two component signaling system Hik21, AP07430015 (Spirulina platensis strain C1). Briefly: two-hybrid; bait plasmid in Y2HGold mated with prey plasmid in Y187 (strains also switched), 2XYPDA, 30°C, 24 hr; plated on DDO and DDO/X/A, blue colonies streaked onto high stringency QDO/X/A, 30°C.

B1: Uroporphyrinogen decarboxylase (UroD or HemE), AP06900013 (enzyme, UniProt A0ABX3XNX7 1-388)
chain: MRASPIRRRPRAHAEISATCPDRRARRRAKIWGVSANLSPAGQQQTGTEHSAFLKACRREPVPHTPVWFMRQAGRSLPEYRKVREGIAMLDSCMRPELVTEITLQPVRRHNVDAAIYFSDIVVPLKAIGIDLDIKPGIGPVVENPIRTRADLEQLRPLEAGDVPYVTEAIGMLVRELGGTPLIGFAGAPFTLASYLVEGGPSRNHERTKALMYGDPQLWADLLDRLADITATFLQVQIAAGASAVQLFDSWVGALSPADYRRSVMPASAKVFRAVEGLGVPRIHFGVGTGELLGLLGEAGADVVGVDWRVPLDEAARRVGPGKALQGNIDPAVLFAPREAVETKAREVLDAAAGLEGHIFNLGHGVLPTTDPDALTRLVEYVHTQTAR
For B1, the binding entry was “binds”.
